No constants are given. Whether binding was seen depends on the method and setting. In cells and extracts the contact can be indirect. Some binding calls cover weakened binding; strength is not graded here.
Target: human myc-tagged Rictor (human) (UniProt Q6R327)
Assay: co-IP; whole cell lysate of Ric0 cells immunoprecipitated with anti-Myo1C or anti-myc antibodies, immunoblotted for the myc-tag or Myo1C; normal mouse IgG as non-specific control

Protein sequences, listed by entry. Tags and fused reporters are not part of them.
UniProt Q6R327: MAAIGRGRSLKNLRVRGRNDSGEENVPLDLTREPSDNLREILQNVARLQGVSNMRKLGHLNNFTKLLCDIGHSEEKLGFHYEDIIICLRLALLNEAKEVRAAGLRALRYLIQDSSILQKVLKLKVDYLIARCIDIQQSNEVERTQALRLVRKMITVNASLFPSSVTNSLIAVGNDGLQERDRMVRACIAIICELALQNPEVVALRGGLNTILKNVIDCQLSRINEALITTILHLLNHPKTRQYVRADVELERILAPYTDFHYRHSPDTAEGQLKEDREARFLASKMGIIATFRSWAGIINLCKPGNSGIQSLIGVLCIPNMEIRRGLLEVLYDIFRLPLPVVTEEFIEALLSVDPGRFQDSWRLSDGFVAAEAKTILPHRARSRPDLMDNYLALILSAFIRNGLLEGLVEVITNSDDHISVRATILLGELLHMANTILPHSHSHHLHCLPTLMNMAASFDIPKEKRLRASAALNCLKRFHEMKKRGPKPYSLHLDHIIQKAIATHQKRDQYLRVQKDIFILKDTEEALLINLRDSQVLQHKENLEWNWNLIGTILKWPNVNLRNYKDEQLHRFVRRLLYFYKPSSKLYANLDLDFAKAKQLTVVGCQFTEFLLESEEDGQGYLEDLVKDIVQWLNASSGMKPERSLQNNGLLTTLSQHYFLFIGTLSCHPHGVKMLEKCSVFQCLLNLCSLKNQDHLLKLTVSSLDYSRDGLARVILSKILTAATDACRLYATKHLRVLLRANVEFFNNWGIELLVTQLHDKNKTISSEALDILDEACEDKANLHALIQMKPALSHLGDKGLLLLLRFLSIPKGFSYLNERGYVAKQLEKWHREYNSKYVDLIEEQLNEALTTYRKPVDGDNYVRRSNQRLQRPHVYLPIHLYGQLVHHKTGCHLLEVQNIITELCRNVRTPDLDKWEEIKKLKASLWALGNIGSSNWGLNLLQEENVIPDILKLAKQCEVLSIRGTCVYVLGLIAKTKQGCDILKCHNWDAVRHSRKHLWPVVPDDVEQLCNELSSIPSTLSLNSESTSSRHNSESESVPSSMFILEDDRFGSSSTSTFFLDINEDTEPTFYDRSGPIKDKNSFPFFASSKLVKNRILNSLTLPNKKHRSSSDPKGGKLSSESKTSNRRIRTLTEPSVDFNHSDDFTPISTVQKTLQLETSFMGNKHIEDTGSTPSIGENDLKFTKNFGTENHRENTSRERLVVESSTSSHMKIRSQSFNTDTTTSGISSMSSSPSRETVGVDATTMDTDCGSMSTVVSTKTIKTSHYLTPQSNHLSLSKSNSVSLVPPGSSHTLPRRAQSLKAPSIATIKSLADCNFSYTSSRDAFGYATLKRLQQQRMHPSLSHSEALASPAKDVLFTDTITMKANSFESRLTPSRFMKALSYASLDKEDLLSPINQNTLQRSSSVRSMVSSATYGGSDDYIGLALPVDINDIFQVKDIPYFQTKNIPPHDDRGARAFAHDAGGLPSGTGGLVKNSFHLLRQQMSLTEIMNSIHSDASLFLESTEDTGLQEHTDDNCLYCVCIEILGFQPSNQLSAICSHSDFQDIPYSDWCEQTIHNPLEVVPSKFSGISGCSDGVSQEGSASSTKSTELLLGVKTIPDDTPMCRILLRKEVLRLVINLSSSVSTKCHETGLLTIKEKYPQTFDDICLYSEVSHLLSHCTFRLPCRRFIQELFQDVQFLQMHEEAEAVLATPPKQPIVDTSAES
UniProt Q9WTI7: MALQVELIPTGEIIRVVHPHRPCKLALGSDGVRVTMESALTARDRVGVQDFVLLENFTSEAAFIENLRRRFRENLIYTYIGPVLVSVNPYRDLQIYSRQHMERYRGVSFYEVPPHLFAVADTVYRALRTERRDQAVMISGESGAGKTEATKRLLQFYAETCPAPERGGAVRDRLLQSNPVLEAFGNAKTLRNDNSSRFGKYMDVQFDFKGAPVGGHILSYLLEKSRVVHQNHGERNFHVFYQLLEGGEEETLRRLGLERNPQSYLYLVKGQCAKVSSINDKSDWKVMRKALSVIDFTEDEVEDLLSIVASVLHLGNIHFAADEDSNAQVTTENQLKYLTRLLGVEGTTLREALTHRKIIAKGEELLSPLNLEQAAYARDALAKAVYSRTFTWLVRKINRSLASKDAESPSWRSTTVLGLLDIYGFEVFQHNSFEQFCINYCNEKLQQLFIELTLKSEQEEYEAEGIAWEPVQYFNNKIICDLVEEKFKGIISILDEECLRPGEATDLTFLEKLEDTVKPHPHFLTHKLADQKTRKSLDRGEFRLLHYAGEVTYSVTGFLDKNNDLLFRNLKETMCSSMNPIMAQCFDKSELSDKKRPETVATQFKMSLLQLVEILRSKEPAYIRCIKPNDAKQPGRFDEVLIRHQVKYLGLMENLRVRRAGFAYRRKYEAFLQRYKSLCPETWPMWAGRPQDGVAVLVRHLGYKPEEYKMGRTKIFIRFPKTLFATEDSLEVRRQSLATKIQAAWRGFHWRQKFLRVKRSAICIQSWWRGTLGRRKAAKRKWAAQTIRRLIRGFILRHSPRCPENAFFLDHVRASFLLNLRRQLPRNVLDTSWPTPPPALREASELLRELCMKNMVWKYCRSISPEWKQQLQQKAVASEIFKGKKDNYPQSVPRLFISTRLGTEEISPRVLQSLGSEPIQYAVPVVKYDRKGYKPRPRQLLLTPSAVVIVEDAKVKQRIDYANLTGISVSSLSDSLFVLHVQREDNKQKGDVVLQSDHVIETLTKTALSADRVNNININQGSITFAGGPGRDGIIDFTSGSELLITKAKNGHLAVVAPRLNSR

## unconventional myosin Myo1C (from UniProt Q9WTI7 1-1063)
  binding: binds

Reference: article PMC3471885
